Here are results for one substance from paper PMC4964934.

Protein sequences, listed by entry. Tags and fused reporters are not part of them.
UniProt O95243: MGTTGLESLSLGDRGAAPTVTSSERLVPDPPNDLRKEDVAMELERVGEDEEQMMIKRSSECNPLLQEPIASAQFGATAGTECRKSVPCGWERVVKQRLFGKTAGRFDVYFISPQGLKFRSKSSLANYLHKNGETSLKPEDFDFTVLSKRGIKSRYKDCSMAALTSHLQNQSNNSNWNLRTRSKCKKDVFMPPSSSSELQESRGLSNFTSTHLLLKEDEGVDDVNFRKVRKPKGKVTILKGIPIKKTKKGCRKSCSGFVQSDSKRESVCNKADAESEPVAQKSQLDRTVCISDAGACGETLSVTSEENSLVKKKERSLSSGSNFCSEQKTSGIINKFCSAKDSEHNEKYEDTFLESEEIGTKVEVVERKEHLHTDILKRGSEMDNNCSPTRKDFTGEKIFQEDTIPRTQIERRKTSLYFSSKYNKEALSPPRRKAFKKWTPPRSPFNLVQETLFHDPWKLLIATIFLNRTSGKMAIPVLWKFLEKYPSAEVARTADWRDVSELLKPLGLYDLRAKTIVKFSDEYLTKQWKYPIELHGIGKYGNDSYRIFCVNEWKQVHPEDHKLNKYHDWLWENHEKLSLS
UniProt Q93009: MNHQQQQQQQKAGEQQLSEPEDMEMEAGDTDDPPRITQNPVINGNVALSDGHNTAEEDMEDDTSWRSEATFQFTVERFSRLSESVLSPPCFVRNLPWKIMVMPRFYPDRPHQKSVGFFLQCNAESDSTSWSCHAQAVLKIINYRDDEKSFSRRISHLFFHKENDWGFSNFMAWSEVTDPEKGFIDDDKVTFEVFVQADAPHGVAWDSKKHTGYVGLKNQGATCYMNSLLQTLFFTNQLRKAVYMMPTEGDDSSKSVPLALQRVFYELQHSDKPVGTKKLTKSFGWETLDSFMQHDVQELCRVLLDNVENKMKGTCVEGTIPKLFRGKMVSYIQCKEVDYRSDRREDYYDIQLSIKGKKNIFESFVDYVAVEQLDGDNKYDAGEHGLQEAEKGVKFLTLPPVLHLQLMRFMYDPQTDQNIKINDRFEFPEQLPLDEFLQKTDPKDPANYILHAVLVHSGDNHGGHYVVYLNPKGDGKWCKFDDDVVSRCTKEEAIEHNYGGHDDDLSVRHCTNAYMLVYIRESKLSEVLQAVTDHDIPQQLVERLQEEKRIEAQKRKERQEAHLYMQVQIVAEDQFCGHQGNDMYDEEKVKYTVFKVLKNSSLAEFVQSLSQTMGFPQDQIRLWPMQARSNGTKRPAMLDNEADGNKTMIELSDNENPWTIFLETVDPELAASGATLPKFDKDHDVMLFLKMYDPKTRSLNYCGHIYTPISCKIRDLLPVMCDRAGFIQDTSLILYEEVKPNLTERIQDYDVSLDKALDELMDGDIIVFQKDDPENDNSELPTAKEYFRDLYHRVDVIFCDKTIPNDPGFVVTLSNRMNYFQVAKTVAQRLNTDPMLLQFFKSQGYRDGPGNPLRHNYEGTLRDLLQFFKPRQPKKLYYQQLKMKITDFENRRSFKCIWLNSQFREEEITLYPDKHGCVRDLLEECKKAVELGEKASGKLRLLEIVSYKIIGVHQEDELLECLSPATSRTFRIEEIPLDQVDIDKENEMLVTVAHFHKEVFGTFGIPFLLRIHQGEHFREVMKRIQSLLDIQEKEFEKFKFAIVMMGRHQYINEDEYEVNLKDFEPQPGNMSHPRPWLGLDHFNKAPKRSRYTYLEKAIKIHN

No constants are given. Whether binding was seen depends on the method and setting. In cells and extracts the contact can be indirect. These calls come from enrichment with a bait or labelling near it, and not all partners need be listed.

The target in the assay is FLAG-hMBD4 (SF-TAP-hMBD4), human full-length MBD4 (human) (UniProt O95243). Nature of the assay: affinity purification with mass spectrometry; FLAG-MBD4 purified on anti-FLAG beads from MNase-digested nuclear extract of transfected 293T cells; SDS-PAGE, excised bands, Mascot search; control: empty vector.

Consider “USP7 (ubiquitin specific peptidase 7, herpes virus-associated), found by mass spectrometry in the FLAG-MBD4 purification (from UniProt Q93009 1-1102)”, for which the binding entry was “binds”.
